No constants are given. Whether binding was seen depends on the method and setting. Binding seen in cells or lysates may run through a third protein. Some binding calls cover weakened binding; strength is not graded here.

Protein sequences, listed by entry. Tags and fused reporters are not part of them.
UniProt P62962: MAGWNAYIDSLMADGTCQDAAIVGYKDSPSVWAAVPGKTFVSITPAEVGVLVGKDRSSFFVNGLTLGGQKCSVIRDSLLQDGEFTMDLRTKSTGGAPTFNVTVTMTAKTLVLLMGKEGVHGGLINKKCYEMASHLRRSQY
UniProt P07737: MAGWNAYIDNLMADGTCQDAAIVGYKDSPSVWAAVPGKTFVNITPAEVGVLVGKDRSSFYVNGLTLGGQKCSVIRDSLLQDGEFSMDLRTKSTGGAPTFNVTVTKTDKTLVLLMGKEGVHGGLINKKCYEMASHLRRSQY
UniProt Q921G8: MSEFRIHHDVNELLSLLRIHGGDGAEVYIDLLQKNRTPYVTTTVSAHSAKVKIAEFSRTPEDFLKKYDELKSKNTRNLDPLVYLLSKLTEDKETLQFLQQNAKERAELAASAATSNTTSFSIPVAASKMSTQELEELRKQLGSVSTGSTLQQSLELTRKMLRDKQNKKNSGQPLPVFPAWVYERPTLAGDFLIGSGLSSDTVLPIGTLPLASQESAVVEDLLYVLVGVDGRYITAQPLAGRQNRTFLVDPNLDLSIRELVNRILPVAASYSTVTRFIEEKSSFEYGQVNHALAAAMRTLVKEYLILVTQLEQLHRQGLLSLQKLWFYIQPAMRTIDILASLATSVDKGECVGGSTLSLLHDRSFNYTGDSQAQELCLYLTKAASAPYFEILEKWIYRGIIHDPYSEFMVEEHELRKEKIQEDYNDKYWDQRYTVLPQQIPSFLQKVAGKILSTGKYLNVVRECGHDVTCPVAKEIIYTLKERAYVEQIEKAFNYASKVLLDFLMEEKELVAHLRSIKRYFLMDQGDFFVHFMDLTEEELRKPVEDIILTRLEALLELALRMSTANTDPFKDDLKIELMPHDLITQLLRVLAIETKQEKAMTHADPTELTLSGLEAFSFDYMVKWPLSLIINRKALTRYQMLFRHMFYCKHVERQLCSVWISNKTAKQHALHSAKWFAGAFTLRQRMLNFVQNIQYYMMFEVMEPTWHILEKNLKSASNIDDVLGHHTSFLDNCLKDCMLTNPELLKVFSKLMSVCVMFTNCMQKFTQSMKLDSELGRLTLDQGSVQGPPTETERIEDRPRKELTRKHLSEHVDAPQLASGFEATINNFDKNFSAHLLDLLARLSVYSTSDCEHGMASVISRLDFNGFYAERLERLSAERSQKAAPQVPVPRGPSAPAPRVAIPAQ
UniProt Q9BSJ2: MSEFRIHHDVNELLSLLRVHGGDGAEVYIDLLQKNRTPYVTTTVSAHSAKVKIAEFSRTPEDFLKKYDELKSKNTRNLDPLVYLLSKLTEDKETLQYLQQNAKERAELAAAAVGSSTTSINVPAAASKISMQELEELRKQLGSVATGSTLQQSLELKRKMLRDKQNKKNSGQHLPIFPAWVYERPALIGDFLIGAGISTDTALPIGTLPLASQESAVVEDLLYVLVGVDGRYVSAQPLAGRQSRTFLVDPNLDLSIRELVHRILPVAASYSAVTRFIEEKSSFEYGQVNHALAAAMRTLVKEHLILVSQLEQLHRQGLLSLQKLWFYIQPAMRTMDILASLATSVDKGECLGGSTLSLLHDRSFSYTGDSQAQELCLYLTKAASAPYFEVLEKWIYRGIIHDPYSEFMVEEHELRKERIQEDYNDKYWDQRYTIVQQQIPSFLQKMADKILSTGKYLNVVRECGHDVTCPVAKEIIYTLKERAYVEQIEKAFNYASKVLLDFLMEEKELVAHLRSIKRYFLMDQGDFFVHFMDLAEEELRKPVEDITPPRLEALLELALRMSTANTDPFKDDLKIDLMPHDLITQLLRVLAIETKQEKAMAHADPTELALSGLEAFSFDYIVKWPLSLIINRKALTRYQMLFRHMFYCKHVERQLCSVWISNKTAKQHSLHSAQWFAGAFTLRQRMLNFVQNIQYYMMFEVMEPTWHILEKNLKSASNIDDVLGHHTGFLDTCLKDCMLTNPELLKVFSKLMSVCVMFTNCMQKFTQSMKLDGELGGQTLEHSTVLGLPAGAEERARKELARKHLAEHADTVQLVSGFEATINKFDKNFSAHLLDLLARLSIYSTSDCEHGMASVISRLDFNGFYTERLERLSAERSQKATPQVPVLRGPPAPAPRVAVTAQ
UniProt Q9D4F8: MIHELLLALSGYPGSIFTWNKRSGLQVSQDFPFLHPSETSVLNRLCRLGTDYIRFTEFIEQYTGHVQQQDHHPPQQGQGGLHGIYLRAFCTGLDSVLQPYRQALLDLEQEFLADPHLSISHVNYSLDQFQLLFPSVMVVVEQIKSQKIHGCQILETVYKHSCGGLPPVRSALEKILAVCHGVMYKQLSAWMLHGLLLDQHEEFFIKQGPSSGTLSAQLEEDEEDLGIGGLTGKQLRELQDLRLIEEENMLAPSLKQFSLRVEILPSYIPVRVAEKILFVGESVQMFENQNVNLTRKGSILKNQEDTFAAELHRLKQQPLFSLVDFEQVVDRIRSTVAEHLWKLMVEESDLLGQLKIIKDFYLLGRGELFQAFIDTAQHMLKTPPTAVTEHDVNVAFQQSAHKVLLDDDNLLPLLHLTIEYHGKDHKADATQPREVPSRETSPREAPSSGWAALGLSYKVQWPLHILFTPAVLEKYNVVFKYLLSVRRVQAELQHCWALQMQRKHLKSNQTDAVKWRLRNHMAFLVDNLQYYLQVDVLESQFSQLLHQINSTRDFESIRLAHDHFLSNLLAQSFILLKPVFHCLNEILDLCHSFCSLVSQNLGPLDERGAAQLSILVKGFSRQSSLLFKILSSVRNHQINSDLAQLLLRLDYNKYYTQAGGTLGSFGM
UniProt Q9UGJ1: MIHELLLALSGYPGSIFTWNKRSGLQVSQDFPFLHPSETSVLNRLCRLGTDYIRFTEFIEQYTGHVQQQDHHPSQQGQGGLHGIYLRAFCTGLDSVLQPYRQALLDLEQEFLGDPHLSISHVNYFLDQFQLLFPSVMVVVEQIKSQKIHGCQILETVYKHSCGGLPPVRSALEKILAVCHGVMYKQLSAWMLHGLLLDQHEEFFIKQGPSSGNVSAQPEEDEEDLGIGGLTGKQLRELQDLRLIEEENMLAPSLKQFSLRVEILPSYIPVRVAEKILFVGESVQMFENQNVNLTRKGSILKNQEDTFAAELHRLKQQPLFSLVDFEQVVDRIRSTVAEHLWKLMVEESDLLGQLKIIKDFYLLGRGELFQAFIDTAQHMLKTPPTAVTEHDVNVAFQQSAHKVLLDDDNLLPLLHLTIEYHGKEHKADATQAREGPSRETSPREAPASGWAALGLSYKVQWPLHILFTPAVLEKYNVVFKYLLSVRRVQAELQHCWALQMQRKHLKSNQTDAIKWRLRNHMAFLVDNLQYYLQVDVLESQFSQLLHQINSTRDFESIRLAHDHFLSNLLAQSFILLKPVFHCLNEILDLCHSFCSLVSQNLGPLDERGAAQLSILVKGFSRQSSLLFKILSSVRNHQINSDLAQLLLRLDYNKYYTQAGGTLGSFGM

For assay [1], the target named is profilin 1 (mouse (endogenous in B16)) (UniProt P62962). In words: co-IP; extracts of B16 cells in RIPA buffer, Protein A beads saturated with Abs to profilin, γ-tubulin or GCP2; Western blot. For orientation: In western blotting, separated proteins are transferred to a membrane and probed.
Assay [2] deals with profilin 1 (Caco-2 cells) (human (endogenous in Caco-2)) (UniProt P07737). In words: co-IP; extracts of Caco-2 cells in RIPA buffer, Protein A beads saturated with Abs to profilin or γ-tubulin; Western blot.
Assay [3] deals with γ-tubulin complex protein 2 (mouse (endogenous in B16)) (UniProt Q921G8). In words: co-IP; extracts of B16 cells in RIPA buffer, Protein A beads saturated with Abs to profilin, γ-tubulin or GCP2; Western blot.

In the case of “γ-tubulin complex protein 2 (from UniProt Q921G8 1-905)”, the binding result in assay [1] is “binds”.
As to “γ-tubulin complex protein 2 (Caco-2 cells) (from UniProt Q9BSJ2 1-902)”, the binding entry in assay [2] is recorded as “binds”.
“γ-tubulin complex protein 4 (from UniProt Q9D4F8 1-667)”: in assay [1], the binding entry is “binds”.
Turning to “γ-tubulin complex protein 4 (Caco-2 cells) (from UniProt Q9UGJ1 1-667)”, in assay [2], the binding result was “binds”.
On to profilin 1 (from UniProt P62962 1-140), for which the binding entry in assay [3] was “binds”.

For the origin of these results see paper PMC7668531.
